# Some results come without the dose or concentration used.
# System: Akkermansia muciniphila ATCC BAA-835
# Test: Utilization of carbohydrates (API50CH kit), type strain
# Type: cell-based
# Design: key: +: growth; w: weak growth; −: no growth
# Details: type strain ATCC BAA-835
row,Compound,"Growth using the carbohydrate, ATCC BAA-835"
1,N#C[C@H](O[C@@H]1O[C@H](CO[C@@H]2O[C@H](CO)[C@@H](O)[C@H](O)[C@H]2O)[C@@H](O)[C@H](O)[C@H]1O)c1ccccc1 [Amygdaline],−
2,CCN1C[C@]2(COC(=O)c3ccccc3N)CC[C@H](OC)[C@]34C5C[C@@H]6[C@@H](OC)C[C@@](O)(C5[C@H]6OC)[C@@](O)(C13)[C@@H](OC)C24 (some centres unmarked) [Inuline],−
3,Amidon [Amidon (starch)],−
4,O=c1ccc2cc(O[C@@H]3O[C@H](CO)[C@@H](O)[C@H](O)[C@H]3O)c(O)cc2o1 [Esculine],−
5,O=C([O-])[C@H](O)[C@@H](O)[C@H](O)[C@H](O)CO.[K+] [Potassium Gluconate],−

# Source: patent publication US20250057893A1, “PHARMACEUTICAL COMPOSITION FOR PREVENTING OR TREATING CANCER OR INFLAMMATORY DISEASE” (ENTEROBIOME INC., priority 2021, published 2025)
